{
  "source": "the supplement of paper PMC12889115",
  "system": "Salmonella enterica serovar Typhimurium SL1344",
  "experiment": "bacterial growth OD600 after 18 h with compound and polymyxin B; higher = more bacterial growth (less inhibition)",
  "conditions": "50 µM, Mueller-Hinton broth",
  "note": "The list shows a part of the results. Values are raw readings; no control value is given beside them.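 In the initial screen, polymyxin B was used at a concentration that permeabilizes Salmonella's outer membrane but not its inner membrane. Maximum growth was set by DMSO wells with or without polymyxin B. Since plates varied, data were ranked per plate, and compounds giving the lowest OD600 advanced as hits.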",
  "data": [
    {"compound": "Cc1[nH]c2c(C(=O)N3CCC4(CC3)CC4C(=O)N3CCN(c4ccccn4)CC3)cccc2c1C", "note": "(stereo not given)", "values": [
      {"measurement": "bacterial growth OD600", "setting": "polymyxin B 0.75 µg/mL", "value": 0.791}
    ]},
    {"compound": "O=C1CC(NC2CCSCC2)CN1C1CCCCCC1", "note": "(stereo not given)", "values": [
      {"measurement": "bacterial growth OD600", "setting": "polymyxin B 1 µg/mL", "value": 1.05}
    ]},
    {"compound": "CCN1CC(CN(C)C(=O)c2cc(COc3ccc4sc(C)nc4c3)on2)CC1=O", "note": "(stereo not given)", "values": [
      {"measurement": "bacterial growth OD600", "setting": "polymyxin B 1 µg/mL", "value": 0.927}
    ]},
    {"compound": "O=C(NC1CC1)C1CCCN(C2CCN(Cc3cccc(F)c3)CC2)C1", "note": "(stereo not given)", "values": [
      {"measurement": "bacterial growth OD600", "setting": "polymyxin B 0.75 µg/mL", "value": 0.794}
    ]},
    {"compound": "CCCN1CCC(NC2CC(=O)N(Cc3ccccc3C(F)(F)F)C2)CC1", "note": "(stereo not given)", "values": [
      {"measurement": "bacterial growth OD600", "setting": "polymyxin B 1 µg/mL", "value": 0.879}
    ]},
    {"compound": "COc1cc(OC)cc(C(=O)NCC2CCCN(C(=O)C3=CCCC3)C2)c1", "note": "(stereo not given)", "values": [
      {"measurement": "bacterial growth OD600", "setting": "polymyxin B 1 µg/mL", "value": 0.838}
    ]},
    {"compound": "Cn1c(C2CCC2)nc2cc(C(=O)N3CCc4c(Cl)cccc4C3)cc(NC(=O)C3CCCO3)c21", "note": "(stereo not given)", "values": [
      {"measurement": "bacterial growth OD600", "setting": "polymyxin B 0.75 µg/mL", "value": 0.757}
    ]},
    {"compound": "CC(C)c1ccc(CN2CCCC3(CCN(C(=O)C4CCOCC4)C3)C2)cc1", "note": "(stereo not given)", "values": [
      {"measurement": "bacterial growth OD600", "setting": "polymyxin B 1 µg/mL", "value": 0.925}
    ]},
    {"compound": "COc1ccc2cc(-c3n[nH]cc3CN3CCC(c4ccncc4)CC3)ccc2c1", "values": [
      {"measurement": "bacterial growth OD600", "setting": "polymyxin B 1 µg/mL", "value": 0.696}
    ]},
    {"compound": "CN(Cc1cc(C2CC2)[nH]n1)C(=O)c1cc(COc2cccc(F)c2)[nH]n1", "values": [
      {"measurement": "bacterial growth OD600", "setting": "polymyxin B 1 µg/mL", "value": 1.04}
    ]},
    {"compound": "COc1ccc(C(=O)N2CCCC2)c(OC2CCN(CCCC(F)(F)F)CC2)c1", "values": [
      {"measurement": "bacterial growth OD600", "setting": "polymyxin B 1 µg/mL", "value": 1.15}
    ]},
    {"compound": "O=C(Nc1ccc(-c2ccco2)cc1)C1CCCN(Cc2cccc3c2OCO3)C1", "note": "(stereo not given)", "values": [
      {"measurement": "bacterial growth OD600", "setting": "polymyxin B 1 µg/mL", "value": 0.776}
    ]},
    {"compound": "CC(=O)Nc1cnn(-c2ccc(C(=O)N3CCC(c4ccccc4Cl)C3)cc2)c1", "note": "(stereo not given)", "values": [
      {"measurement": "bacterial growth OD600", "setting": "polymyxin B 0.75 µg/mL", "value": 0.004}
    ]},
    {"compound": "COc1ccc(-c2ccccc2NC(=O)C2CCCN2CC2CC2)cc1", "note": "(stereo not given)", "values": [
      {"measurement": "bacterial growth OD600", "setting": "polymyxin B 1 µg/mL", "value": 0.238}
    ]},
    {"compound": "CCOC(=O)C1(CCOc2ccccc2)CCN(Cc2cccs2)CC1", "values": [
      {"measurement": "bacterial growth OD600", "setting": "polymyxin B 1 µg/mL", "value": 0.793}
    ]},
    {"compound": "COc1cc(-c2nc(CN(CCO)CC34CC5CC(CC(C5)C3)C4)c(C)o2)ccc1F", "values": [
      {"measurement": "bacterial growth OD600", "setting": "polymyxin B 1 µg/mL", "value": 0.684}
    ]},
    {"compound": "CCC(=O)N1CCC2(CCCN(Cc3ccc(F)c(F)c3)C2=O)C1", "note": "(stereo not given)", "values": [
      {"measurement": "bacterial growth OD600", "setting": "polymyxin B 1 µg/mL", "value": 0.972}
    ]},
    {"compound": "Cc1ccc(C)c(C(=O)N2CCC(C3(Cc4cccc(F)c4)NC(=O)N(CCN(C)C)C3=O)CC2)c1", "note": "(stereo not given)", "values": [
      {"measurement": "bacterial growth OD600", "setting": "polymyxin B 0.75 µg/mL", "value": 0.908}
    ]},
    {"compound": "O=C(c1ccc(OC2CCN(Cc3ccccn3)CC2)cc1)N1CCCC1c1nccs1", "note": "(stereo not given)", "values": [
      {"measurement": "bacterial growth OD600", "setting": "polymyxin B 1 µg/mL", "value": 0.879}
    ]},
    {"compound": "O=C(C1CCCN(C2CCN(Cc3ccccc3)CC2)C1)N1CCc2[nH]ncc2C1", "note": "(stereo not given)", "values": [
      {"measurement": "bacterial growth OD600", "setting": "polymyxin B 0.75 µg/mL", "value": 0.936}
    ]},
    {"compound": "NC(=O)C1CCCN(c2ccc(-c3nc(CCCc4ccccc4)no3)cn2)C1", "note": "(stereo not given)", "values": [
      {"measurement": "bacterial growth OD600", "setting": "polymyxin B 0.75 µg/mL", "value": 0.662}
    ]},
    {"compound": "COc1ccc(N2C(=O)CN(C(=O)c3cc(CC(C)C)n[nH]3)CC23CCCC3)cc1", "values": [
      {"measurement": "bacterial growth OD600", "setting": "polymyxin B 0.75 µg/mL", "value": 0.741}
    ]},
    {"compound": "C=CCC(O)(CC=C)C(C)NC(=O)Cn1cc(NC(=O)CCc2ccccc2OC)cn1", "note": "(stereo not given)", "values": [
      {"measurement": "bacterial growth OD600", "setting": "polymyxin B 0.75 µg/mL", "value": 1.01}
    ]},
    {"compound": "CCc1csc(CNC(=O)c2ccc(NCC3CCCCO3)nc2)n1", "note": "(stereo not given)", "values": [
      {"measurement": "bacterial growth OD600", "setting": "polymyxin B 1 µg/mL", "value": 0.845}
    ]},
    {"compound": "COc1ccc(-c2n[nH]cc2CN2CCCCC2CCNC(C)=O)c(OC)c1", "note": "(stereo not given)", "values": [
      {"measurement": "bacterial growth OD600", "setting": "polymyxin B 1 µg/mL", "value": 1.2}
    ]},
    {"compound": "CN(C(=O)c1cc2ccccc2n1C)C1CCCN(Cc2ccccc2F)C1", "note": "(stereo not given)", "values": [
      {"measurement": "bacterial growth OD600", "setting": "polymyxin B 1 µg/mL", "value": 0.649}
    ]},
    {"compound": "CCOC(=O)CC1CCCCN1C(=O)c1cc(COc2ccc(OC)cc2Cl)on1", "note": "(stereo not given)", "values": [
      {"measurement": "bacterial growth OD600", "setting": "polymyxin B 1 µg/mL", "value": 0.736}
    ]},
    {"compound": "O=C(Nc1cccs1)NC1CC(=O)N(C2CCCCCC2)C1", "note": "(stereo not given)", "values": [
      {"measurement": "bacterial growth OD600", "setting": "polymyxin B 1 µg/mL", "value": 1.18}
    ]},
    {"compound": "O=C(c1ccccn1)C1CCCN(Cc2nc(Cc3cccc(C(F)(F)F)c3)no2)C1", "note": "(stereo not given)", "values": [
      {"measurement": "bacterial growth OD600", "setting": "polymyxin B 1 µg/mL", "value": 0.831}
    ]},
    {"compound": "CCS(=O)(=O)Nc1cccc(N2CCC(NC(C)c3ccccc3Cl)CC2)c1", "note": "(stereo not given)", "values": [
      {"measurement": "bacterial growth OD600", "setting": "polymyxin B 0.75 µg/mL", "value": 0.734}
    ]}
  ]
}
